Publication PMC4751435
No constants are given. Whether binding was seen depends on the method and setting. In cells and extracts the contact can be indirect. Some results given as binding are weak or reduced against the parent protein; the word gives no strength. Where a sequence is shown, tags or fusion partners need not be part of it.

Chains of the proteins cited; added tags and fusions are not shown. Residues count along the entry.
UniProt P63165, residues 1-97: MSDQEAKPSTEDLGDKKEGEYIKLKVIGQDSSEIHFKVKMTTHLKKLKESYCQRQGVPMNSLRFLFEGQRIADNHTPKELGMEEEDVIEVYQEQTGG
UniProt P61956: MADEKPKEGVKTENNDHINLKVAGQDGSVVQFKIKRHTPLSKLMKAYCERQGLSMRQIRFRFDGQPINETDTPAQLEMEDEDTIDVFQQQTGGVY
UniProt O75928: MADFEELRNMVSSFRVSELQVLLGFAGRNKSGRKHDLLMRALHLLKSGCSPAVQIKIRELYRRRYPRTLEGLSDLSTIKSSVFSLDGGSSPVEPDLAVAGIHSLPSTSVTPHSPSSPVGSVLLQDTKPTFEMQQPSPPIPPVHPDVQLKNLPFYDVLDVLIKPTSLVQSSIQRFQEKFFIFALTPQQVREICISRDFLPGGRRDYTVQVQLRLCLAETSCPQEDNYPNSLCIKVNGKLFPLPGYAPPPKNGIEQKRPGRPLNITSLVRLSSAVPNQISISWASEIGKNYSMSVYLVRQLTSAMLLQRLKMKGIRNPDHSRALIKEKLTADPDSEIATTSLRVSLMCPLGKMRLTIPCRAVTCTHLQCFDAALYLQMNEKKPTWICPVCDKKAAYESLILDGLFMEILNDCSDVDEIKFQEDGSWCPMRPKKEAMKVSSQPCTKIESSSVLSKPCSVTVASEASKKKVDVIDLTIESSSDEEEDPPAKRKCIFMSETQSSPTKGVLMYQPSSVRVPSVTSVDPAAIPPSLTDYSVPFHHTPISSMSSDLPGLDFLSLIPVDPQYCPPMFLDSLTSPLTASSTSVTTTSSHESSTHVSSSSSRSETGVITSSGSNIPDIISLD
UniProt O75925: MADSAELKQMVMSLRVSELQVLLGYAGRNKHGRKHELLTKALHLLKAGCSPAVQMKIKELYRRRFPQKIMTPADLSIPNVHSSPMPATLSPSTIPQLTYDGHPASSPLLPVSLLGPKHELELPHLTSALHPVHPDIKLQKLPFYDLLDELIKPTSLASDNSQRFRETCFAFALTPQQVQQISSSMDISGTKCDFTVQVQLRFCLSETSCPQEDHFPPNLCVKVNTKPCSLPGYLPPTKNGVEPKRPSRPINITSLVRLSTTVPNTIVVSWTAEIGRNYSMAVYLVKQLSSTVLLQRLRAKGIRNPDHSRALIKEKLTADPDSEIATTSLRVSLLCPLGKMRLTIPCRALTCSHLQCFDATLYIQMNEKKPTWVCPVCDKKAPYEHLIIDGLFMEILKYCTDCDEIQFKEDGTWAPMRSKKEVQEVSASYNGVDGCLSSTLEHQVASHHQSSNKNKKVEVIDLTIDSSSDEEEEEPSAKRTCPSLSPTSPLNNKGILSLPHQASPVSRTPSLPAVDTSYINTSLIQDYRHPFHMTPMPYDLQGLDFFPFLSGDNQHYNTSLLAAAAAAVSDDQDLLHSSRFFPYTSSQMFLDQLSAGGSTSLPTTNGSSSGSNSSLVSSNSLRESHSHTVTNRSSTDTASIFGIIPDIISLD

Columns and labels:
Experiment in all cases: FRET or BRET; BRET in live HEK293 cells transfected with a Renilla luciferase fusion (donor) and a YFP fusion (acceptor); control donor a nuclear-targeted luciferase; mean corrected BRET ratios, n = 3
[1] = target: YFP-SUMO1 (wild-type, GG) (human) (UniProt P63165)
[2] = target: YFP-SUMO2 (wild-type, GG) (human) (UniProt P61956)
YFP-PIAS4 (human) = target: T1, YFP-PIAS4 (human) (UniProt Q8N2W9)
T1 sequence: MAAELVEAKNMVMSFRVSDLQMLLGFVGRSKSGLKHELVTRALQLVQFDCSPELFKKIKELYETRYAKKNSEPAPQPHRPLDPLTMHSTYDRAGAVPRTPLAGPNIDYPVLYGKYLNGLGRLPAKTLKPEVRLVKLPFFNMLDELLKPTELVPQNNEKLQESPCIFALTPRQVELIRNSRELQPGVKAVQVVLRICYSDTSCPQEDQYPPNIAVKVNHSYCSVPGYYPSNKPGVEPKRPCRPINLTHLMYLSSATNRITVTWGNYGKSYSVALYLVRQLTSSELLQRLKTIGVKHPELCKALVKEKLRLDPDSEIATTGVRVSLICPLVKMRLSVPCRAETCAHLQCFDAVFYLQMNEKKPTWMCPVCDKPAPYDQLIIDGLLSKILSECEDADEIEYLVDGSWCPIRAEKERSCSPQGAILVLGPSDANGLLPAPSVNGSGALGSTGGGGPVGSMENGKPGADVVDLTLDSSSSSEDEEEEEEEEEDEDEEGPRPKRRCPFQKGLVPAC

YFP-PIAS2 (human) = YFP-PIAS2 (human) (UniProt O75928)
[3] = target: YFP-PIAS1 (wild-type) (human) (UniProt O75925)

Measured: binding

B1: luciferase-FOXP1 (protein, UniProt Q9H334 1-677)
chain: MMQESGTETKSNGSAIQNGSGGSNHLLECGGLREGRSNGETPAVDIGAADLAHAQQQQQQALQVARQLLLQQQQQQQVSGLKSPKRNDKQPALQVPVSVAMMTPQVITPQQMQQILQQQVLSPQQLQVLLQQQQALMLQQQQLQEFYKKQQEQLQLQLLQQQHAGKQPKEQQQVATQQLAFQQQLLQMQQLQQQHLLSLQRQGLLTIQPGQPALPLQPLAQGMIPTELQQLWKEVTSAHTAEETTGNNHSSLDLTTTCVSSSAPSKTSLIMNPHASTNGQLSVHTPKRESLSHEEHPHSHPLYGHGVCKWPGCEAVCEDFQSFLKHLNSEHALDDRSTAQCRVQMQVVQQLELQLAKDKERLQAMMTHLHVKSTEPKAAPQPLNLVSSVTLSKSASEASPQSLPHTPTTPTAPLTPVTQGPSVITTTSMHTVGPIRRRYSDKYNVPISSADIAQNQEFYKNAEVRPPFTYASLIRQAILESPEKQLTLNEIYNWFTRMFAYFRRNAATWKNAVRHNLSLHKCFVRVENVKGAVWTVDEVEFQKRRPQKISGNPSLIKNMQSSHAYCTPLNAALQASMAENSIPLYTTASMGNPTLGNLASAIREELNGAMEHTNSNESDSSPGRSPMQAVHPVHVKEEPLDPEEAEGPLSLVTTANHSPDFDHDRDYEDEPVNEDME
binds: all assays above
